Assay: general procedure: Fmoc solid-phase peptide synthesis; Chlorotrityl resin; HBTU/DIEA
Conditions: conjugation step, sequence written open

Substance: MMAE-PAB-(Cit-Val)-BCY3900
- final purity (method not given) (bicyclic): 96.5%
- conjugation yield (on BCY3900, bicyclic): 73.4%
